Assay results taken from patent US10414798B2, “Cancer stem cell targeting peptide and use thereof” (AGRICULTURAL TECHNOLOGY RESEARCH INSTITUTE, priority 2015, dated 2019).

Each substance was assayed on mouse embryonic stem cell (mESC) (assay: M13 phage display selection, secondary CSC/ESC HP-library (ESC bound fraction)). Conditions: ESC bound fraction.
Format: binding
Procedure: The M13 PhD-7 library (NEB, E8100) which contains 10^9 independent clones was purchased from New England Biolabs Inc. 10^13 plaque firming units (pfus) of M13 PhD-7 phages in 10 mL DMEM were pre-adsorbed by cancer cells in a T75 flask twice, each for 1 hour. Subsequently, the supernatant was transferred to a T25 flask containing 5×10^6 CSCs and incubated for 1 hour. The unbound and weakly associated phages were removed by centrifugation and suspension three times in DMEM/0/2% BSA. The cell pellet was suspended in 1 mL PBS containing 10^9 E. coli ER2738 and incubated in a shaker for 1 hour. Then 10 mL LB/5 mM MgCl2 was added. After being cultured over-night at 37° C., the cells were removed by centrifugation and phages in the supernatant were titrated. The aforementioned selection procedures were carried out for three rounds for EMT6 and PANC-1 to obtain the primary EMT6 CSC homing peptide (HP)- and PANC-1 CSC HP-library, respectively. Subsequently, M13 plaques were picked up to prepare the DNA for sequencing. The EMT6 CSC HP-library was further selected by CT26 CSCs, Hepa1-6 CSCs, and mouse embryonic stem cell (mESC) again to prepare the secondary CT26 CSC HP-, Hepa1-6 CSC HP-, and CSC/ES HP-library. The unbound fraction after mESC adsorption was collected and assigned as the CSC PH-library.
The primary CSC HP-library was selected directly once by either CT26 or Hepa1-6 CSCs to test the bias of CSC HP affinities to different kinds of cancers. […] The bias of CSC HP affinities between CSCs and embryonic stem cells (ESCs) was another interesting issue. […] Two new peptide sequences, KIYTTLD (CSC HP-9) (SEQ ID NO: 11) and NLQPPAY (CSC HP-12) (SEQ ID NO: 12), were read in the ESC unbound fraction (CSC HP-library) (Table 1).

Row | Substance | times of CSC HP sequence detected, Secondary CSC/ESC (n = 20)
1 | ATYGNLW (Cancer Stem Cell Targeting Peptide) [CSC HP-5, synthetic peptide that targets cancer stem cells] | 1
2 | ELTPLTL (Cancer Stem Cell Targeting Peptide) [CSC HP-8, synthetic peptide that targets cancer stem cells] | 2
3 | FPFTKNL (Cancer Stem Cell Targeting Peptide) [CSC HP-4, synthetic peptide that targets cancer stem cells] | 2
4 | FSGGGNH (Cancer Stem Cell Targeting Peptide) [CSC HP-3, synthetic peptide that targets cancer stem cells] | 1
5 | GMMSSPP (Cancer Stem Cell Targeting Peptide) [CSC HP-2, synthetic peptide that targets cancer stem cells] | 1
6 | HGGVRLY (Cancer Stem Cell Targeting Peptide) [CSC HP-7, synthetic peptide that targets cancer stem cells] | 1
7 | SQPTWMF (Cancer Stem Cell Targeting Peptide) [CSC HP-1, synthetic peptide that targets cancer stem cells] | 11
8 | YHMPALM (Cancer Stem Cell Targeting Peptide) [CSC HP-6, synthetic peptide that targets cancer stem cells] | 1
